One molecule from US20110045003A1 (SYNOVEX, published 2011) can be followed below.

These are yes or no findings as the source states them, for the method shown. Some entries that bind do so weakly or less than the wild type.

The target of experiment [1] is humanized anti-Cad-11 EC1 antibody SDP051 (Vκ1/VH5). In words: peptide competition, flow cytometry; peptide titrated against 0.5 µg/ml SDP051 on Cad-11 expressing 431D cells. On the technique in general: In flow cytometry, cells or beads pass a laser one at a time.
For experiment [2] the target is unchanged. In words: flow cytometry competition: peptide titrated with SDP051 at 0.5 ug/ml on Cad-11 expressing 431D cells; MFI = SDP051 bound to cell Cad-11.

On to GWVWNQFFVIEEYTGPDPVLVGRLHSDIDSGDGNIKY (peptide, UniProt P55287 54-90, looked up, linked to BSA) [BSA coupled 37-mer Cad-11 peptide encompassing the Cad-11 immunogen], for which the binding result in experiment [1] and in experiment [2] was “binds” throughout.
